Results deposited as PubChem BioAssay AID1259254 (NCATS, 2017)

- Assay: 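Finding genes that stop cells copying their DNA twice in one cycle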 (primary screen)
- System: human HCT116 colorectal cancer cells
- Reagents: single siRNA against human genes
- Duration: 3 days
- Measured: 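Nuclei stained with Hoechst and imaged; cell-cycle phase assigned by DNA content; G2 share scaled per plate, non-targeting siRNA 0%, GMNN siRNA 100%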
- Scale: G2 robust z-score and G2 cells, % of GMNN control: higher = more G2 cells, more excess DNA replication
- Call rule: 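An siRNA counts as active if its G2 robust z-score lies at least 5 MADs above the screen median; here such calls match roughly 38% of GMNN control or more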
In all, the deposit lists about 59,000 reagents; below is a part drawn at random. Over the whole deposit, about 1,550 (2.6%) got an active call. 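G2 share is only a proxy for re-replication; each gene was hit by three separate siRNAs, and active genes were retested.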 Unmarked entries are inactive. The numbers tell different reagents against one gene apart. Further read-outs or replicates are left out here. Reagent sequences are not shown. The record does not give: the amount of reagent.

no.	target gene	siRNA no.	G2 robust z-score	G2 cells, % of GMNN control
1	SLC10A5	1	-0.554	-0.929
2	SLC10A5	2	0.919	9.43
3	SLC10A5	3	0.903	9.32
4	CAGE1 (cancer antigen 1)	1	0.184	4.26
5	CAGE1 (cancer antigen 1)	2	-0.093	2.31
6	CAGE1 (cancer antigen 1)	3	0.92	9.44
7	GPR87 (G protein-coupled receptor 87)	1	-1.31	-6.23
8	GPR87 (G protein-coupled receptor 87)	2	-0.75	-2.31
9	GPR87 (G protein-coupled receptor 87)	3	-0.277	1.02
10	C11orf86 (chromosome 11 open reading frame 86)	1	0.778	8.44
11	C11orf86 (chromosome 11 open reading frame 86)	2	-0.213	1.47
12	C11orf86 (chromosome 11 open reading frame 86)	3	0.198	4.36
13	FTO (FTO alpha-ketoglutarate dependent dioxygenase)	1	-0.232	1.33
14	FTO (FTO alpha-ketoglutarate dependent dioxygenase)	2	0.359	5.5
15	FTO (FTO alpha-ketoglutarate dependent dioxygenase)	3	2.56	21
16	DEFB119 (defensin beta 119)	1	-0.23	1.35
17	DEFB119 (defensin beta 119)	2	-0.596	-1.23
18	DEFB119 (defensin beta 119)	3	-0.761	-2.38
19	ZNF519 (zinc finger protein 519)	1	-0.598	-1.24
20	ZNF519 (zinc finger protein 519)	2	1.78	15.5
21	ZNF519 (zinc finger protein 519)	3	2.71	22.1
22	APRT (adenine phosphoribosyltransferase)	1	-1.79	-9.62
23	APRT (adenine phosphoribosyltransferase)	2	1.51	13.6
24	APRT (adenine phosphoribosyltransferase)	3	-1.35	-6.54
25	NRBF2 (nuclear receptor binding factor 2)	1	0.685	7.79
26	NRBF2 (nuclear receptor binding factor 2)	2	-0.759	-2.38
27	NRBF2 (nuclear receptor binding factor 2)	3	0.437	6.04
28	SLC24A4	1	-0.679	-1.81
29	SLC24A4	2	0.178	4.22
30	SLC24A4	3	-0.722	-2.11
31	OR6B1 (olfactory receptor family 6 subfamily B member 1)	1	-0.338	0.592
32	OR6B1 (olfactory receptor family 6 subfamily B member 1)	2	4.23	32.8
33	OR6B1 (olfactory receptor family 6 subfamily B member 1)	3	-0.654	-1.63
34	SLC25A28	1	2.59	21.2
35	SLC25A28	2	1.1	10.7
36	SLC25A28	3	4.08	31.7

7 entries from above, reformatted.
SLC24A4 #2
- G2 robust z-score: 0.178
- G2 cells, % of GMNN control: 4.22

SLC24A4 #3
- G2 robust z-score: -0.722
- G2 cells, % of GMNN control: -2.11

OR6B1 (olfactory receptor family 6 subfamily B member 1) #1
- G2 robust z-score: -0.338
- G2 cells, % of GMNN control: 0.592

OR6B1 (olfactory receptor family 6 subfamily B member 1) #2
- G2 robust z-score: 4.23
- G2 cells, % of GMNN control: 32.8

OR6B1 (olfactory receptor family 6 subfamily B member 1) #3
- G2 robust z-score: -0.654
- G2 cells, % of GMNN control: -1.63

SLC25A28 #1
- G2 robust z-score: 2.59
- G2 cells, % of GMNN control: 21.2

SLC25A28 #2
- G2 robust z-score: 1.1
- G2 cells, % of GMNN control: 10.7

More reagents:
no.	target gene	siRNA no.	G2 robust z-score	G2 cells, % of GMNN control
37	TAX1BP3 (Tax1 binding protein 3)	1	4.55	35
38	TAX1BP3 (Tax1 binding protein 3)	2	0.903	9.32
39	TAX1BP3 (Tax1 binding protein 3)	3	1.14	11
40	MEGF6 (multiple EGF like domains 6)	1	3.09	24.7
41	MEGF6 (multiple EGF like domains 6)	2	1.93	16.5
42	MEGF6 (multiple EGF like domains 6)	3	1.43	13
43	ZNF566 (zinc finger protein 566)	1	-0.0884	2.35
44	ZNF566 (zinc finger protein 566)	2	-0.245	1.25
45	ZNF566 (zinc finger protein 566)	3	0.645	7.5
46	RNF4 (ring finger protein 4)	1	-0.449	-0.195
47	RNF4 (ring finger protein 4)	2	-0.29	0.924
48	RNF4 (ring finger protein 4)	3	3.49	27.5
49	IRAG1 (inositol 1,4,5-triphosphate receptor associated 1)	1	0.234	4.62
50	IRAG1 (inositol 1,4,5-triphosphate receptor associated 1)	2	2.42	20
51	IRAG1 (inositol 1,4,5-triphosphate receptor associated 1)	3	-1.21	-5.54
52	INPP5E (inositol polyphosphate-5-phosphatase E)	1	0.549	6.83
53	INPP5E (inositol polyphosphate-5-phosphatase E)	2	-1.07	-4.58
54	INPP5E (inositol polyphosphate-5-phosphatase E)	3	0.174	4.19
55	FXYD6 (FXYD domain containing ion transport regulator 6)	1	0.0143	3.07
56	FXYD6 (FXYD domain containing ion transport regulator 6)	2	-0.786	-2.56
57	FXYD6 (FXYD domain containing ion transport regulator 6)	3	-0.291	0.92
58	GRIA4 (glutamate ionotropic receptor AMPA type subunit 4)	1	-1.21	-5.57
59	GRIA4 (glutamate ionotropic receptor AMPA type subunit 4)	2	-0.928	-3.56
60	GRIA4 (glutamate ionotropic receptor AMPA type subunit 4)	3	0.789	8.52
61	PCDHB2 (protocadherin beta 2)	1	0.154	4.05
62	PCDHB2 (protocadherin beta 2)	2	-1.33	-6.42
63	PCDHB2 (protocadherin beta 2)	3	0.121	3.82
64	GLYR1 (glyoxylate reductase 1 homolog)	1	1.68	14.8
65	GLYR1 (glyoxylate reductase 1 homolog)	2	0.111	3.75
66	GLYR1 (glyoxylate reductase 1 homolog)	3	-0.519	-0.684
67	MS4A4A (membrane spanning 4-domains A4A)	1	2.78	22.6
68	MS4A4A (membrane spanning 4-domains A4A)	2	-0.0931	2.31
69	MS4A4A (membrane spanning 4-domains A4A)	3	-0.832	-2.89
